Experimental data as given in paper PMC8964499 (Frontiers in Chemistry, 2022).

Experiment: general procedure: Fmoc solid-phase peptide synthesis; Rink amide resin (100–200, 0.25 mmol/g); 2-Chlorotrityl resin; HCTU/DIPEA
Settings: whole synthesis, 214 nm, scale of the general procedure 100 μmol, TFA salt (peptides, PNAs); formic acid salt (conjugates)

| Substance | final purity (method not given) |
| --- | --- |
| Cys-PEG-Cyt-Thy-Cyt-Ade-Thy-Ade-Cyt-Thy-Cyt-Thy-Thy-Gua-Lys-NH2 | 98.93% |
| CINA-PEG-Thy-Thy-Thy-Cyt-Thy-Cyt-Gua-Thy-Cyt-Ade-Lys-NH2 | 98.58% |
| CINA-PEG-Cyt-Thy-Cyt-Ade-Thy-Ade-Cyt-Thy-Cyt-Thy-Lys-NH2 | 97.67% |
| CINA-PEG-Val-Cys ^d -Lys-Arg-trp-Lys-Lys-Trp-Lys-Arg-Lys-Trp-Lys-Lys-Trp-Cys ^d -Val-NH2 | 96.20% |
| Cys-PEG-OctGly-Dab-Thr-Dab-Dab ^b -Dab-D-Phe-Leu-Dab-Dab-Thr ^b | 95.05% |
| CINA-PEG-Thy-Cyt-Cyt-Ade-Thy-Thy-Ade-Thy-Thy-Gau-Lys-NH2 | 96.18% |
| H-Arg-Acp-Arg-Arg-Acp-Arg-Arg-Acp-Arg-Arg-Acp-Arg-PEG-Lys (CINA)-NH2 | 92.85% |
| CINA-PEG-Cyt-Gua-Ade-Thy-Cyt-Ade-Thy-Thy-Cyt-Ade-Ade-Ade-Lys-NH2 | 87.96% |
| CINA-PEG-Gly-Lys-Pro-Arg-Pro-Tyr-Ser-Pro-Arg-Pro-Thr-Ser-His-Pro-Arg-Pro-Ile-Arg-Arg-NH2 | 95.46% |
| CINA-PEG-OctGly-Dab-Thr-Dab-Dab ^b -Dab-D-Phe-Leu-Dab-Dab-Thr ^b | 96.51% |
